Data as given in PMC3776929.
Results are given in words; binding and its absence hold for the method and conditions named. Binding seen in cells or lysates may run through a third protein. Binding calls can cover weak binding; strength is not graded here.

B1: Swc4 (protein, UniProt P53201 1-476)
chain: MSSSDIFDVLNIKQKSRSPTNGQVSVPSSSAANRPKPQVTGMQRELFNLLGENQPPVVIKSGNNFKEKMLSTSKPSPWSFVEFKANNSVTLRHWVKGSKELIGDTPKESPYSKFNQHLSIPSFTKEEYEAFMNENEGTQKSVESEKNHNENFTNEKKDESKNSWSFEEIEYLFNLCKKYDLRWFLIFDRYSYNNSRTLEDLKEKFYYTCRNYFKASDPSNPLLSSLNFSAEKEIERKKYLQRLLSRSAAEIAEEEALVVESKKFEMAAKRTLAERESLLRLLDSPHSDQTITQYLTSQGMSQLYNALLADKTRKRKHDLNIPENPWMKQQQQFAQHRQLQQLNVKKSEVKENLSPKKTKRQRQEMQTALKRKSESAYAEQLLKDFNSDERKALGVITHGEKLSPGVYLRSTKLSTFKPALQNKILAILQELSLPSRPVMPSFDVMERQEELLKKINTLIDLKKHVDKYEAGMSITK
B2: Bdf1 (protein, UniProt P35817 1-686)
chain: MTDITPVQNDVDVNGNNVNDDVSSNLKRPIDQGDPSNGLAEEENPANNQLHLKKARLDGDALTSSPAGLAENGIEGATLAANGENGYNATGSGAEDEQQGLKKEEGGQGTKQEDLDENSKQELPMEVPKEPAPAPPPEPDMNNLPQNPIPKHQQKHALLAIKAVKRLKDARPFLQPVDPVKLDIPFYFNYIKRPMDLSTIERKLNVGAYEVPEQITEDFNLMVNNSIKFNGPNAGISQMARNIQASFEKHMLNMPAKDAPPVIAKGRRSSAQEDAPIVIRRAQTHNGRPKRTIHPPKSKDIYPYESKKPKSKRLQQAMKFCQSVLKELMAKKHASYNYPFLEPVDPVSMNLPTYFDYVKEPMDLGTIAKKLNDWQYQTMEDFERDVRLVFKNCYTFNPDGTIVNMMGHRLEEVFNSKWADRPNLDDYDSDEDSRTQGDYDDYESEYSESDIDETIITNPAIQYLEEQLARMKVELQQLKKQELEKIRKERRLARGSKKRGKRSKGRSGSKNASSKGRRDKKNKLKTVVTYDMKRIITERINDLPTSKLERAIDIIKKSMPNISEDDEVELDLDTLDNHTILTLYNTFFRQYESSSGASNGLDGTSGVTRDASSLSPTSAGSRKRRSKALSQEEQSRQIEKIKNKLAILDSASPLSQNGSPGQIQSAAHNGFSSSSDDDVSSESEEE
B3: Swc3 (protein, UniProt P31376 1-625)
chain: MPAVLRTRSKESSIEQKPASRTRTRSRRGKRGRDDDDDDDDEESDDAYDEVGNDYDEYASRAKLATNRPFEIVAGLPASVELPNYNSSLTHPQSIKNSGVLYDSLVSSRRTWVQGEMFELYWRRPKKIVSESTPAATESPTSGTIPLIRDKMQKMCDCVMSGGPHTFKVRLFILKNDKIEQKWQDEQELKKKEKELKRKNDAEAKRLRMEERKRQQMQKKIAKEQKLQLQKENKAKQKLEQEALKLKRKEEMKKLKEQNKNKQGSPSSSMHDPRMIMNLNLMAQEDPKLNTLMETVAKGLANNSQLEEFKKFIEIAKKRSLEENPVNKRPSVTTTRPAPPSKAKDVAEDHRLNSITLVKSSKTAATEPEPKKADDENAEKQQSKEAKTTAESTQVDVKKEEEDVKEKGVKSEDTQKKEDNQVVPKRKRRKNAIKEDKDMQLTAFQQKYVQGAEIILEYLEFTHSRYYLPKKSVVEFLEDTDEIIISWIVIHNSKEIEKFKTKKIKAKLKADQKLNKEDAKPGSDVEKEVSFNPLFEADCPTPLYTPMTMKLSGIHKRFNQIIRNSVSPMEEVVKEMEKILQIGTRLSGYNLWYQLDGYDDEALSESLRFELNEWEHAMRSRRHKR
B4: Yaf9 (protein, UniProt P53930 1-226)
chain: MAPTISKRIKTLSVSRPIIYGNTAKKMGSVKPPNAPAEHTHLWTIFVRGPQNEDISYFIKKVVFKLHDTYPNPVRSIEAPPFELTETGWGEFDINIKVYFVEEANEKVLNFYHRLRLHPYANPVPNSDNGNEQNTTDHNSKDAEVSSVYFDEIVFNEPNEEFFKILMSRPGNLLPSNKTDDCVYSKQLEQEEIDRIEIGIEKVDKEIDELKQKLENLVKQEAINGS
B5: Arp4 (protein, UniProt P80428 1-489)
chain: MSNAALQVYGGDEVSAVVIDPGSYTTNIGYSGSDFPQSILPSVYGKYTADEGNKKIFSEQSIGIPRKDYELKPIIENGLVIDWDTAQEQWQWALQNELYLNSNSGIPALLTEPVWNSTENRKKSLEVLLEGMQFEACYLAPTSTCVSFAAGRPNCLVVDIGHDTCSVSPIVDGMTLSKSTRRNFIAGKFINHLIKKALEPKEIIPLFAIKQRKPEFIKKTFDYEVDKSLYDYANNRGFFQECKETLCHICPTKTLEETKTELSSTAKRSIESPWNEEIVFDNETRYGFAEELFLPKEDDIPANWPRSNSGVVKTWRNDYVPLKRTKPSGVNKSDKKVTPTEEKEQEAVSKSTSPAANSADTPNETGKRPLEEEKPPKENNELIGLADLVYSSIMSSDVDLRATLAHNVVLTGGTSSIPGLSDRLMTELNKILPSLKFRILTTGHTIERQYQSWLGGSILTSLGTFHQLWVGKKEYEEVGVERLLNDRFR

target: Swr1 with an ∼400 amino acid truncation, as in the subcomplex SWR1-ΔN-Mod (S. cerevisiae); experiment: co-IP; FLAG affinity purification of SWR1 (or a subcomplex) from S. cerevisiae, eluted with 3× FLAG peptide; SDS-PAGE (4%-12% Bis-Tris), Coomassie or SYPRO Orange stain; band intensities normalised for protein size for the stoichiometry

Row | binding | Binder
1 | no binding | B1
2 | no binding | B2
3 | binds | B3
4 | no binding | B4
5 | no binding | B5
